Data taken from article PMC5174146.
These are yes or no findings as the source states them, for the method shown. Some binding calls cover weakened binding; strength is not graded here.

Target: apoferritin (UniProt P02791)
Experiment: native MS; protein mixture (native PAGE molecular weight markers) buffer-exchanged into 100 mM aqueous ammonium acetate pH 7; Orbitrap EMR, parameters optimised for the m/z window of each protein/complex, spectra stitched together; both purified

binding: binds
B1: apoferritin (protein, UniProt P02791 1-175)
chain: MSSQIRQNYSTEVEAAVNRLVNLYLRASYTYLSLGFYFDRDDVALEGVCHFFRELAEEKREGAERLLKMQNQRGGRALFQDLQKPSQDEWGTTLDAMKAAIVLEKSLNQALLDLHALGSAQADPHLCDFLESHFLDEEVKLIKKMGDHLTNIQRLVGSQAGLGEYLFERLTLKHD
